Test results from paper PMC12044415 (RSC Advances, 2025).

Legend:
[1] = system: A2780 (cisplatin-sensitive ovarian cancer cells); test: Cell viability assay; format: cell-based, human; details: read-out: IC50 A2780; 96 h of incubation
Summary of the method: (§1)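 Cells cultured per supplier at 37 °C, 5% CO2, and seeded at 1.5 × 10^3 per well. Treated with six concentrations of test compound (0.001, 0.01, 0.1, 1, 10 and 100 μM final), diluted into culture medium from a 10 mM DMSO stock; cisplatin stock in water. Viability read by CellTiter-Glo after 96 h. IC50 from triplicates, error bars as standard deviations.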

[2] = system: MDA-MB-231 (triple-negative breast cancer); test: Cell viability assay; format: cell-based, human; details: read-out: IC50 MDA-MB-231; 96 h of incubation
Summary of the method: as §1

`N.N.[Cl][Pt][Cl]` [Cisplatin, cisplatin] was tested, and the IC50 [1] was 2.7 ± 0.3 µM and the IC50 [2] was 10 ± 1 µM.
